Earlier results as cited in patent US20100222262A1, “SUBSTITUTED 1, 3-CYCLOPENTADIONE ATTENUATED ENDOTHELIAL INFLAMMATION AND ENDOTHELIAL-MONOCYTE INTERACTIONS” (METAPROTEOMICS, LLC, priority 2008, published 2010).

Test system: 85 Kinases
Details: Concn 1 uM

CN[C@@H]1C[C@H]2O[C@@](C)([C@@H]1OC)n1c3ccccc3c3c4c(c5c6ccccc6n2c5c31)C(=O)NC4 [Staurosporine]
hit rate (>50% Inhibition): 78
